Measurements as given in paper PMC3179520.
No constants are given. Whether binding was seen depends on the method and setting. In cells and extracts the contact can be indirect. Some entries that bind do so weakly or less than the wild type. For some assays here: Where a sequence is shown, tags or fusion partners need not be part of it.

Protein sequences, listed by entry. Tags and fused reporters are not part of them.
UniProt O35973: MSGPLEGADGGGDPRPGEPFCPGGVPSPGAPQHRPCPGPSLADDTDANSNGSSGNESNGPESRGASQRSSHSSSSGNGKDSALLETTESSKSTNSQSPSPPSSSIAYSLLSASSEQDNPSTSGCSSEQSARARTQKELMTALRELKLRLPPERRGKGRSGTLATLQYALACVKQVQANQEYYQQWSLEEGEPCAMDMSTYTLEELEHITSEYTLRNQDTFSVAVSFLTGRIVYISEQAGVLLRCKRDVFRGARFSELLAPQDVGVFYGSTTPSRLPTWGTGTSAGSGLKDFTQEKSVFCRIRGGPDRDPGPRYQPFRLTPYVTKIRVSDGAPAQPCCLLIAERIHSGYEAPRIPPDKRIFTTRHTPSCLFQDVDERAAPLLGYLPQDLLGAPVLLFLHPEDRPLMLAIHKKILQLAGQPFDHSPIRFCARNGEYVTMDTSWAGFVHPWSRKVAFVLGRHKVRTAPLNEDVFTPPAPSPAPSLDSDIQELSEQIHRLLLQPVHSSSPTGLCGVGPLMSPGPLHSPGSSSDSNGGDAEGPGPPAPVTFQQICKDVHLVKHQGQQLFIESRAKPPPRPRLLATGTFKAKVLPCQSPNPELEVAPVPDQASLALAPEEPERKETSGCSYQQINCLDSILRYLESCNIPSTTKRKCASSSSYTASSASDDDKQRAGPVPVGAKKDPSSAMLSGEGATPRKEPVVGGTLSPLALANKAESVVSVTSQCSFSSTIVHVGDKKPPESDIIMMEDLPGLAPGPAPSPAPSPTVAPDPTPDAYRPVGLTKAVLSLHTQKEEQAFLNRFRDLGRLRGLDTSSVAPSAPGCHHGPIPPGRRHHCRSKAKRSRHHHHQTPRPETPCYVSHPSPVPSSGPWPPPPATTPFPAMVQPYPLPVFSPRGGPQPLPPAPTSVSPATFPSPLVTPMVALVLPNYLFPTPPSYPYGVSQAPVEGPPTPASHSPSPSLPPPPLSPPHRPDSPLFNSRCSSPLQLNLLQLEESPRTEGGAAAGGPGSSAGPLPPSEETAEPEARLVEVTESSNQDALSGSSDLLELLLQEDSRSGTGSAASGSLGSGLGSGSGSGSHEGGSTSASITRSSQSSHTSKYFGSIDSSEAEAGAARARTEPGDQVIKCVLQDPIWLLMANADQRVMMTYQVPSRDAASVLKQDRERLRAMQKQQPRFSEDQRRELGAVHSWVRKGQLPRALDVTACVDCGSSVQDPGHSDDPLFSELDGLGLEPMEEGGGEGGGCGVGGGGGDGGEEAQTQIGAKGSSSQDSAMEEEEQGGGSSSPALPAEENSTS
UniProt Q9WTL8: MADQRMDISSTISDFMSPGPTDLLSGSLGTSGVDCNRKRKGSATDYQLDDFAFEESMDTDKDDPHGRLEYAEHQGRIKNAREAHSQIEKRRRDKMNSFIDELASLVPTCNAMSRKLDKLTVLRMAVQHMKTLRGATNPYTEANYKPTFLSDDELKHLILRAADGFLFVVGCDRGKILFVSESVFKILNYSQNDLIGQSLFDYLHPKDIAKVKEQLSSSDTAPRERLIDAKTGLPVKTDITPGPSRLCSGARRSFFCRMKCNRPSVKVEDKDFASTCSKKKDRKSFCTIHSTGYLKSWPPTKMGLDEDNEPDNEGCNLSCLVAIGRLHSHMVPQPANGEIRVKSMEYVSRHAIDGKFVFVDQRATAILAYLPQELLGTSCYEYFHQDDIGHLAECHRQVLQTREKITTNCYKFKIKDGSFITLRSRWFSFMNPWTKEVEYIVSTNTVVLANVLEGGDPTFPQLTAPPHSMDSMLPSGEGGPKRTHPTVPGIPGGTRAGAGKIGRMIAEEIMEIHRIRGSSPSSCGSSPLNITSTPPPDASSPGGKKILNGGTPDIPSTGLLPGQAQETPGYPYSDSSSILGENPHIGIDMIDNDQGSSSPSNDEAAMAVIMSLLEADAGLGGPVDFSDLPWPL
UniProt Q9JMK2: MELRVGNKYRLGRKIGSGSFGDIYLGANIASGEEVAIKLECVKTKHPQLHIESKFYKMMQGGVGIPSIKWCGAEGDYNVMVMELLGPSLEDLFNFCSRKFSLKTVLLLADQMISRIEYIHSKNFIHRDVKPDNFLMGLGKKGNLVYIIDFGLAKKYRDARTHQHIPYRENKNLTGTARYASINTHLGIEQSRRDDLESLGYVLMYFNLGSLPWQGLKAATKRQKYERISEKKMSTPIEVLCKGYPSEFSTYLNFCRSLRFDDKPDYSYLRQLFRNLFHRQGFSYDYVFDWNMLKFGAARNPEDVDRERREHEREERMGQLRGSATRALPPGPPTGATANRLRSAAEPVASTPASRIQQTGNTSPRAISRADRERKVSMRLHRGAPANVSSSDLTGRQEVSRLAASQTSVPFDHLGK

T1: USP2b (Ubiquitin Specific Protease 2, 45-kDa isoform) (mouse (endogenous in SCN)) (UniProt O88623)
T1 sequence: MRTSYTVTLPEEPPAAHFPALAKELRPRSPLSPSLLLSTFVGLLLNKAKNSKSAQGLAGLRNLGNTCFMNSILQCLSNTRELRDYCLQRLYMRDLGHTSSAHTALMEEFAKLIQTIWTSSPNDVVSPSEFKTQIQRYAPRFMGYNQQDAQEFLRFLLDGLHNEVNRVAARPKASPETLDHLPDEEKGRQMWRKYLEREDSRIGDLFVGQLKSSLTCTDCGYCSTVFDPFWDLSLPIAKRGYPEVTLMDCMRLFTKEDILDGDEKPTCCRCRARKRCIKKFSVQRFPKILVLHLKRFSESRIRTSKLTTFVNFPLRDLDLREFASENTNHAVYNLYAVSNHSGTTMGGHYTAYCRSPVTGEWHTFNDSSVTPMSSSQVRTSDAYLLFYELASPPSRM

T2: FLAG-USP2b (mouse) (UniProt O88623)
T2 sequence: T1 sequence

T3: CRY1 (mouse (endogenous in SCN)) (UniProt P97784)
T3 sequence: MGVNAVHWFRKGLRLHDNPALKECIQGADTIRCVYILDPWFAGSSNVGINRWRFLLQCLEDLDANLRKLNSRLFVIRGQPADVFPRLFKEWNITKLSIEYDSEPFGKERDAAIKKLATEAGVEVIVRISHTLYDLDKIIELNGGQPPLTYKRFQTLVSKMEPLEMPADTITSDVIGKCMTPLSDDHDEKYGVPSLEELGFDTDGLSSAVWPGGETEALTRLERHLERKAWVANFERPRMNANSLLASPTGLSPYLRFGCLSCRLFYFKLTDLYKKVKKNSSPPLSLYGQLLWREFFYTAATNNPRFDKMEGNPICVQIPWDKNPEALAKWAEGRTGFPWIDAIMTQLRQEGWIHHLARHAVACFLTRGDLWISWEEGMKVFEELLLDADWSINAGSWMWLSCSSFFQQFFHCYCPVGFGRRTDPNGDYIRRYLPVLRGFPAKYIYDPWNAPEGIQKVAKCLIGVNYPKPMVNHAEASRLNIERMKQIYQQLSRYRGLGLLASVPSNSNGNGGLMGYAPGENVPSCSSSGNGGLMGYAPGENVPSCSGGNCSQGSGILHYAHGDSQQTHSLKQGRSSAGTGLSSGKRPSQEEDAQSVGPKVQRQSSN

B1: USP2b (Ubiquitin Specific Protease 2, 45-kDa isoform) (enzyme, UniProt O88623-2 1-396)
chain: T1 sequence
B2: FLAG-USP2b (enzyme, UniProt O88623-2 1-396)
chain: T1 sequence
B3: CRY1 (protein, UniProt P97784 1-606)
chain: T3 sequence

Legend:
[1] = molecular target: T1, USP2b (Ubiquitin Specific Protease 2, 45-kDa isoform) (mouse (endogenous in SCN)); assay: co-IP; endogenous proteins of micro-dissected, pooled SCN extracts (N = 15) of WT C57BL/6 mice at ZT12; protein A beads conjugated with rabbit antibodies against BMAL1, USP2, ubiquitin, PER1, CRY1, CK1ε or EGFR; lysis buffer 75 mM Hepes pH 7.4, 150 mM KCl, 0.05% NP-40; overnight at 4°C; western blot with other antibodies
[2] = molecular target: PER1 (mouse (endogenous in SCN)) (UniProt O35973); assay: as above
[3] = molecular target: T2, FLAG-USP2b (mouse); assay: co-IP; NIH 3T3 cells co-transfected with HA-ubiquitin and a bicistronic construct (FLAG-USP2b/MYC-BMAL1, or FLAG-GFP/MYC-BMAL1 as control); IP with FLAG, MYC or HA antibodies; western blot for MYC, FLAG and HA
[4] = molecular target: BMAL1 (mouse (endogenous in SCN)) (UniProt Q9WTL8); assay: co-IP; endogenous proteins of micro-dissected, pooled SCN extracts (N = 15) of WT C57BL/6 mice at ZT12; protein A beads conjugated with rabbit antibodies against BMAL1, USP2, ubiquitin, PER1, CRY1, CK1ε or EGFR; lysis buffer 75 mM Hepes pH 7.4, 150 mM KCl, 0.05% NP-40; overnight at 4°C; western blot with other antibodies
[5] = molecular target: T3, CRY1 (mouse (endogenous in SCN)); assay: as above
[6] = molecular target: CK1ε (mouse (endogenous in SCN)) (UniProt Q9JMK2); assay: as above
[7] = molecular target: MYC-BMAL1 (mouse) (UniProt Q9WTL8); assay: co-IP; NIH 3T3 cells co-transfected with HA-ubiquitin and a bicistronic construct (FLAG-USP2b/MYC-BMAL1, or FLAG-GFP/MYC-BMAL1 as control); IP with FLAG, MYC or HA antibodies; western blot for MYC, FLAG and HA

| Molecule | binding [1] | binding [2] | binding [4] | further results |
| --- | --- | --- | --- | --- |
| BMAL1 (from UniProt Q9WTL8 1-632) | binds | binds | – | – |
| MYC-BMAL1 (from UniProt Q9WTL8 1-632) | – | – | – | binding [3]: binds |
| CK1ε (from UniProt Q9JMK2 1-416) (enzyme) | binds | – | binds | – |
| B1 | – | binds | binds | binding [5]: binds weakly; binding [6]: binds weakly |
| B2 | – | – | – | binding [7]: binds |
| B3 | binds | – | – | – |
